These results are taken from article PMC10771418.

This assay addresses STING-HA, Q86WV6. Put plainly: co-IP; HEK293T transfected with STING-HA and TBK1-MYC with empty vector or VZV gE for 24 h; immunoprecipitation and blots for VZV gE, HA and MYC. The settings on record: remark: other sources report otherwise.

No constants are given. Whether binding was seen depends on the method and setting. In cells and extracts the contact can be indirect. Some binding calls cover weakened binding; strength is not graded here. Sequences can lack the tags named with a protein.

B1: TBK1-MYC, Q9UHD2 1-729 (enzyme)
chain: MQSTSNHLWLLSDILGQGATANVFRGRHKKTGDLFAIKVFNNISFLRPVDVQMREFEVLKKLNHKNIVKLFAIEEETTTRHKVLIMEFCPCGSLYTVLEEPSNAYGLPESEFLIVLRDVVGGMNHLRENGIVHRDIKPGNIMRVIGEDGQSVYKLTDFGAARELEDDEQFVSLYGTEEYLHPDMYERAVLRKDHQKKYGATVDLWSIGVTFYHAATGSLPFRPFEGPRRNKEVMYKIITGKPSGAISGVQKAENGPIDWSGDMPVSCSLSRGLQVLLTPVLANILEADQEKCWGFDQFFAETSDILHRMVIHVFSLQQMTAHKIYIHSYNTATIFHELVYKQTKIISSNQELIYEGRRLVLEPGRLAQHFPKTTEENPIFVVSREPLNTIGLIYEKISLPKVHPRYDLDGDASMAKAITGVVCYACRIASTLLLYQELMRKGIRWLIELIKDDYNETVHKKTEVVITLDFCIRNIEKTVKVYEKLMKINLEAAELGEISDIHTKLLRLSSSQGTIETSLQDIDSRLSPGGSLADAWAHQEGTHPKDRNVEKLQVLLNCMTEIYYQFKKDKAERRLAYNEEQIHKFDKQKLYYHATKAMTHFTDECVKKYEAFLNKSEEWIRKMLHLRKQLLSLTNQCFDIEEEVSKYQEYTNELQETLPQKMFTASSGIKHTMTPIYPSSNTLVEMTLGMKKLKEEMEGVVKELAENNHILERFGSLTMDGGLRNVDCL
As for B1, the binding entry is reported as “binds”.
